# Measured values: US11040052B2, “Methods and pharmaceutical compositions for modulating autophagy in a subject in need thereof” (INSERM (INSTITUT NATIONAL DE LA SANTE ET DE LA RECHERCHE …, priority 2013, dated 2021)
# At least one structure is not confirmed: it was looked up by name or label, or the drawing left a doubt.
# Test system: cytoplasmic protein acetylation
# Experiment: Immunofluorescence of cytoplasmic acetyl-lysine-containing proteins
# Format: cell-based, human
# Details: nutrient-depleted (starved) cells in vitro
# Procedure: Cells were fixed with 4% PFA for 15 min at room temperature, and permeabilized with 0.1% Triton X-100 for 10 min, except for staining of cytoplasmic acetyl-lysine-containing proteins, in which any permeabilization step further than PFA fixation was avoided. Non-specific binding sites were blocked with 5% bovine serum in PBS, followed by staining with primary antibodies overnight at 4° C. Development was carried out with appropriate AlexaFluor™ conjugates (Molecular Probes-Invitrogen). In the case of cytoplasmic acetyl-lysine staining, an additional step of blocking using anti-acetylated-tubulin antibody (1:200) was applied. Ten μM Hoechst 33342 (Molecular Probes-Invitrogen) was employed for nuclear counterstaining. Fluorescence and confocal fluorescence microscopy assessments were performed on an IRE2 microscope (Lcica Microsystems) equipped with a DC300F camera and with an LSM 510 microscope (Carl Zeiss, Jena, Germany), respectively.
# U2OS, HeLa or H4 cells stably expressing GFP-LC3 were seeded in 96-well imaging plates (BD Falcon, Sparks, USA) 24 h before stimulation. Cells were treated with the indicated agents for 4 h. Subsequently, cells were fixed with 4% PFA and counterstained with 10 μM Hoechst 33342. […] Images were analyzed for the presence of GFP-LC3 puncta in the cytoplasm by means of the BD Attovision software (BD Imaging Systems). […] For quantitative analyses of protein acetylation, cell surfaces were segmented into cytoplasm and nuclei regions, and staining intensity of each individual cell was measured for statistical analysis.
# Cells were fixed with 4% PFA for 15 min at room temperature, and permeabilized with 0.1% Triton X-100 for 10 min. […] Ten μM Hoechst 33342 (Molecular Probes-Invitrogen, Eugene, USA) was employed for nuclear counterstaining Fluorescence wide-field and confocal microscopyassessments were performed on an DM IRE2 microscope (Leica Microsystems, Wetzlar, Germany) equipped with a DC300F camera and with an LSM 510 microscope (Carl Zeiss, Jena, Germany), respectively. […]
smiles,measurement,value
CCCC(=O)O [butyrate],cytoplasmic protein acetylation in starved cells,increased protein acetylation
